# According to article PMC7819943, “Rice protein-binding microarrays: a tool to detect cis-acting elements near promoter regions in rice”:
# By UniProt entry, the sequences of proteins in these tests, tags left out.
# UniProt Q0JBA9, entry or part of it: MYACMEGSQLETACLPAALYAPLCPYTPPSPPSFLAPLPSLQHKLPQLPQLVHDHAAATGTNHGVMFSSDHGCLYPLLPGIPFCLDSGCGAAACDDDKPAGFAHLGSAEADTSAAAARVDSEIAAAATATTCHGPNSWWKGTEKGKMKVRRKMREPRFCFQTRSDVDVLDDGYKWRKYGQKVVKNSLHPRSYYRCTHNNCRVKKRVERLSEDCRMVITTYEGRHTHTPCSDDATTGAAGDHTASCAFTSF
# This is one part of the list.
# Molecular target: OsWRKY34 (Oryza sativa, UniProt Q0JBA9 1-250)
# Test: protein-binding microarray (RPBM); PBS, 2% BSA, 51.3 ng/ul salmon testes DNA, 50 uM zinc acetate, 200 nM TF, 25 C, 1 h; high values mean tight binding
# Settings: protein: recombinant; tags: N-terminal polyhistidine and DsRed monomer fusion (pET32a); label: CyDye5-dUTP incorporated in the synthesized complementary strand; 3' TTTTT single-stranded linker to array surface; dsDNA, one strand shown
# How it was run: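 In PBS with 2% BSA, salmon testes DNA and 50 µM zinc acetate, 200 nM protein was incubated on a custom Agilent array at 25 °C for 1 h and then washed off. The array had been made double-stranded by primer extension with Cy5-dUTP and blocked with 2% BSA. The proteins were transcription factors fused N-terminally to polyhistidine and DsRed, expressed in E. coli BL21-CodonPlus and purified on Ni–NTA. The binding signal is per-feature fluorescence intensity (arbitrary units) from an Axon 4000B scanner.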
row,Sequence,binding signal
1,TGTGTGTTCTCCTTTCCTTTAACCTCTCACCATCTTAACTCGGAGTCACCTAGTGCAG,9950 fluorescence intensity (a.u.)
2,ATTTTGATTTTGGTTAGTTTCCGTATATTTTTTCCTCTCACGGAGTCACCTAGTGCAG,12100 fluorescence intensity (a.u.)
3,GCTGGATCGCAACGCAAGGGCCCGCGTCCTCTTCCCTTTCCGGAGTCACCTAGTGCAG,8940 fluorescence intensity (a.u.)
4,CTCCGCATCCCTCTCGCTCCTACCTTACCCCTCGCCGCCACGGAGTCACCTAGTGCAG,10200 fluorescence intensity (a.u.)
5,AACACTTCTTTTGCGGGTCGGCTCCTTTCCTGGACTTTGCCGGAGTCACCTAGTGCAG,15000 fluorescence intensity (a.u.)
6,GTAGTAAGCACATACTAGGTGTTGTGGACATGCCATTGACCGGAGTCACCTAGTGCAG,8730 fluorescence intensity (a.u.)
7,ATATTGGATTGGTTTTCATTGGTTGTATCGTGTGGACCAACGGAGTCACCTAGTGCAG,14000 fluorescence intensity (a.u.)
8,ACCCGTTGTATCTGTGTTTTTTCGGTTGAGGGACGAAAATCGGAGTCACCTAGTGCAG,8630 fluorescence intensity (a.u.)
9,ACCGCCTCCAATCCCGTTACCGCTCCGTGCGACATCCAATCGGAGTCACCTAGTGCAG,10400 fluorescence intensity (a.u.)
10,CCAATCCCTACAGTGAAGGCACAGAGATTAGCTTCCAACACGGAGTCACCTAGTGCAG,8940 fluorescence intensity (a.u.)
11,CCACCCGCATTGGCGTTCAGCTGTATCATCCACCAGCAATCGGAGTCACCTAGTGCAG,8560 fluorescence intensity (a.u.)
12,CAAGCCGGGCGGGAGCCGTGGCGGCGGCCGGGCGGGCGGGCGGAGTCACCTAGTGCAG,8260 fluorescence intensity (a.u.)
13,TCTCCTTTTCTAGTGTTCGCCCGCCGCCATCCACACGCCGCGGAGTCACCTAGTGCAG,8820 fluorescence intensity (a.u.)
14,AATTCTACTCCTGTTCTTTTACTTCTGTACAGAAACCGGTCGGAGTCACCTAGTGCAG,9010 fluorescence intensity (a.u.)
15,ACGATTTAGGTTTGTTTCCTATTCCTTTTACTTTTCTTTACGGAGTCACCTAGTGCAG,8610 fluorescence intensity (a.u.)
16,TAACTACTTTTCCGGCCCAGCTATTCTTTTCGTGCCCTTTCGGAGTCACCTAGTGCAG,9030 fluorescence intensity (a.u.)
17,TTTGATTGCTCCTAAACGTTACTCCCTCGCGCGCCATAAACGGAGTCACCTAGTGCAG,8420 fluorescence intensity (a.u.)
18,AACCCGACATCTATTTCTATAGTTTGGATATACACACGGCCGGAGTCACCTAGTGCAG,8490 fluorescence intensity (a.u.)
19,TTAGAAATCAATGAAACTACTCTTTTTTTTATCATATTTCCGGAGTCACCTAGTGCAG,8530 fluorescence intensity (a.u.)
20,TTCTCAGCGGCCCGAACCTGTATACATCGCCGGCGTCTTGCGGAGTCACCTAGTGCAG,9250 fluorescence intensity (a.u.)
21,AACAAGGTTTGGGGCCTTAGGGGTGATTGTTCACCGTTGACGGAGTCACCTAGTGCAG,9800 fluorescence intensity (a.u.)

row,Sequence,binding signal
1,CTGACGGTCTCATCCACGCTGCAACCAAAGCACCCTCGCCCGGAGTCACCTAGTGCAG,10400 fluorescence intensity (a.u.)
2,TAAATTTTTTTTTTGTGTCCTTCACACATTTTTTATATATCGGAGTCACCTAGTGCAG,8230 fluorescence intensity (a.u.)
3,GCTCCGCCGCCGCACTCCGCTCCGCCGCCACGCTCCGCCACGGAGTCACCTAGTGCAG,13400 fluorescence intensity (a.u.)
4,AAGGGGTGGGCGGCAGGGATGCGGTGGGCGATGAGGGAGACGGAGTCACCTAGTGCAG,10600 fluorescence intensity (a.u.)
5,TTCTGTAACTTGACCGCCCCTTGCATATATATGCAGCCAGCGGAGTCACCTAGTGCAG,8220 fluorescence intensity (a.u.)
6,CGCGGGTTTGCGTGCCAACGTTTGACTGTTCGTCTTATATCGGAGTCACCTAGTGCAG,8500 fluorescence intensity (a.u.)
7,CGCGCGCGCAAGCAACCTTACCTTCCCATGCTGCTGTGATCGGAGTCACCTAGTGCAG,8320 fluorescence intensity (a.u.)
8,CACCCACCAAAACCTCCCACGCACATCTGCCGCGCACGCTCGGAGTCACCTAGTGCAG,8450 fluorescence intensity (a.u.)
9,CCATTATCAGACGATCTTGCTGACCATAAGCTGTACCACACGGAGTCACCTAGTGCAG,9350 fluorescence intensity (a.u.)
10,AATGTATGATGCCGTTGACTTTTCGACTAACGTTTGACCACGGAGTCACCTAGTGCAG,29200 fluorescence intensity (a.u.)
11,CTCACCCCACTCGTTTGCTTGCGTTGCGTGCACAGCGACCCGGAGTCACCTAGTGCAG,8840 fluorescence intensity (a.u.)
12,GTGGGTAGGTATTCTTGTTTGATCATGTTTAAGCAGGCGCCGGAGTCACCTAGTGCAG,9790 fluorescence intensity (a.u.)
13,AGTGTCTTTGACTTTTTGTTTGTAACGTTTGACCATTCGTCGGAGTCACCTAGTGCAG,21900 fluorescence intensity (a.u.)
14,ACTCCCAATCCGCATCTCCCTCCGCTGCGCCGGCGCCGCCCGGAGTCACCTAGTGCAG,8850 fluorescence intensity (a.u.)
15,AACCGTTTCATGAAATTTGGCATATGTTGTCTAGGATTCTCGGAGTCACCTAGTGCAG,8430 fluorescence intensity (a.u.)
16,TACCTACTTTCTCATCTTAAGCAATCACTTCGACTTTAATCGGAGTCACCTAGTGCAG,9820 fluorescence intensity (a.u.)
17,CTACACCGACCGTGCATCCACTCACCCACGAAGTCTGTCACGGAGTCACCTAGTGCAG,10500 fluorescence intensity (a.u.)
18,TGTCCGTCCCTGTCTGATTCCGCCGCGCCTGACCAGACTCCGGAGTCACCTAGTGCAG,9500 fluorescence intensity (a.u.)
19,TTTGATGGATCGGTGTGTACTCATGGTTGTGGTATCTGCCCGGAGTCACCTAGTGCAG,8380 fluorescence intensity (a.u.)
20,TCCTACTCGTCGCTGTCATCGCCGTCTCCGACACATACTTCGGAGTCACCTAGTGCAG,9700 fluorescence intensity (a.u.)
21,CGCCCCACCCGGCCACCCCTACCCGAAGCTCTCTGCTGCTCGGAGTCACCTAGTGCAG,9180 fluorescence intensity (a.u.)

# 6 entries from above, bar-delimited:
row | Sequence | binding signal
3 | GCTGGATCGCAACGCAAGGGCCCGCGTCCTCTTCCCTTTCCGGAGTCACCTAGTGCAG | 8940 fluorescence intensity (a.u.)
8 | ACCCGTTGTATCTGTGTTTTTTCGGTTGAGGGACGAAAATCGGAGTCACCTAGTGCAG | 8630 fluorescence intensity (a.u.)
3 | GCTCCGCCGCCGCACTCCGCTCCGCCGCCACGCTCCGCCACGGAGTCACCTAGTGCAG | 13400 fluorescence intensity (a.u.)
6 | CGCGGGTTTGCGTGCCAACGTTTGACTGTTCGTCTTATATCGGAGTCACCTAGTGCAG | 8500 fluorescence intensity (a.u.)
13 | AGTGTCTTTGACTTTTTGTTTGTAACGTTTGACCATTCGTCGGAGTCACCTAGTGCAG | 21900 fluorescence intensity (a.u.)
14 | ACTCCCAATCCGCATCTCCCTCCGCTGCGCCGGCGCCGCCCGGAGTCACCTAGTGCAG | 8850 fluorescence intensity (a.u.)

# Continued.

row,Sequence,binding signal
1,CAGCCCTGTCGTTTCTCTGCAGCATTTAATTACACACAAACGGAGTCACCTAGTGCAG,10700 fluorescence intensity (a.u.)
2,GAGTACAGCTCCATCCTTTTGTTTGTTATTGTCTTTTTACCGGAGTCACCTAGTGCAG,8400 fluorescence intensity (a.u.)
3,GGTTTGTTCATATGTGGCGGTGGGATCGAGATTATCTAACCGGAGTCACCTAGTGCAG,8890 fluorescence intensity (a.u.)
4,TGATGAGTTATACCCGGTTTTGTGGTGTAGGGGCGAATTTCGGAGTCACCTAGTGCAG,8520 fluorescence intensity (a.u.)
5,TTGGGGTTGCTCAGTTTGTTAGGTTTGGTTAATTTTTCTTCGGAGTCACCTAGTGCAG,16000 fluorescence intensity (a.u.)
6,GTACATACCAATTTTTATAATATTATTTTAACTCTACTTTCGGAGTCACCTAGTGCAG,8080 fluorescence intensity (a.u.)
7,CTCACCTGCTCCTTCAGTCAGCTCAGCTCTTCACTTCTGCCGGAGTCACCTAGTGCAG,8220 fluorescence intensity (a.u.)
8,ACATCCCACCAAAATCTCTTATATTTAGGGACGTGGGGAGCGGAGTCACCTAGTGCAG,8710 fluorescence intensity (a.u.)
9,CTTTTGTCTGTTTTAATGTCGTACTACGTAGATCCCTATTCGGAGTCACCTAGTGCAG,11600 fluorescence intensity (a.u.)
10,CACACGCACGCTTCTCACGTACATATCGATCGCAAATATCCGGAGTCACCTAGTGCAG,8490 fluorescence intensity (a.u.)
11,ATCTTTTCTTGGGACATTTCTTCTGCTGATCTTTAGAGCTCGGAGTCACCTAGTGCAG,8390 fluorescence intensity (a.u.)
12,GCTTCCGCTCTTCATCGGTGGCTGGCTATCCTCGAGCGCTCGGAGTCACCTAGTGCAG,9430 fluorescence intensity (a.u.)
13,TCCATCTGTCACAAATTCTCATGTCCCTTTTTGTCATTAGCGGAGTCACCTAGTGCAG,12000 fluorescence intensity (a.u.)
14,TTCTCGGCCGCCTTCGTGTTCGCCATCATCTCCGACTACACGGAGTCACCTAGTGCAG,15700 fluorescence intensity (a.u.)
15,CTTCTGCATGCCCAATCGCCCATGCTGCAACCGCACATAACGGAGTCACCTAGTGCAG,9280 fluorescence intensity (a.u.)
16,AGTTAGGTTGAGTGTGTTATCTAGCCATTTTATGTTAAAACGGAGTCACCTAGTGCAG,8390 fluorescence intensity (a.u.)
17,TGTATCTAGCTTCGTAACATAGCTTTAGTTGTCGCCGACCCGGAGTCACCTAGTGCAG,8110 fluorescence intensity (a.u.)
18,TTCCGAGGTTTCTTGTGCTAATCGGTGACTTTTTACCCGTCGGAGTCACCTAGTGCAG,10300 fluorescence intensity (a.u.)
19,CTCCGCCGCTCTGCTCACCATTTCCTCTCTCGTAGCCATGCGGAGTCACCTAGTGCAG,9310 fluorescence intensity (a.u.)
20,GTCACCATCAAAATAGCTTCATATCTTCCCTGGAAATTTTCGGAGTCACCTAGTGCAG,8160 fluorescence intensity (a.u.)
21,CTCTCTCTCTTTCTCTCTCTCTCTCTCCCCTACCTATCTTCGGAGTCACCTAGTGCAG,9000 fluorescence intensity (a.u.)

row,Sequence,binding signal
1,CCCGCCGTGGCGCCGGCGCCGTTCCCCGACCTGATCCAGTCGGAGTCACCTAGTGCAG,8550 fluorescence intensity (a.u.)
2,CGCCGTCGTTCGTCCTGCTGCTTCCGCCGCATCCATCCTGCGGAGTCACCTAGTGCAG,9250 fluorescence intensity (a.u.)
3,CATCTCCAGGCAGCCGGCCGTTGCTTCATCGACACGTATACGGAGTCACCTAGTGCAG,9030 fluorescence intensity (a.u.)
4,TACGACCGGAATAACTTCTTGCCCAAAAGCTTTTTCATATCGGAGTCACCTAGTGCAG,8740 fluorescence intensity (a.u.)
5,TCGCGACCTCCACCGCCTGCGTCACACGCCACACCACATCCGGAGTCACCTAGTGCAG,8610 fluorescence intensity (a.u.)
6,CGACCATCAATCAGTCGCTTGCTACGTCGCTTTCCTGATTCGGAGTCACCTAGTGCAG,11500 fluorescence intensity (a.u.)
7,CACATATTAGTTACGGCCTACAATAGACTTTCGGTTAACCCGGAGTCACCTAGTGCAG,10300 fluorescence intensity (a.u.)
8,TAACTATTTTTTCTCTATTATGTAGGCACATGCACACACACGGAGTCACCTAGTGCAG,8560 fluorescence intensity (a.u.)
9,CCACGCACGCGCGCACTCGCATTCCGCCGTCCGCCATGGACGGAGTCACCTAGTGCAG,8080 fluorescence intensity (a.u.)
10,TGAGCTTTGTCCTTGCTACCGTTCTTAATTTAAGCCTCAACGGAGTCACCTAGTGCAG,11400 fluorescence intensity (a.u.)
11,AACGCAGGAAATTCACAGATTTTCACACGATTTTGTCCTTCGGAGTCACCTAGTGCAG,8360 fluorescence intensity (a.u.)
12,TGTGGGAGGGCCTCTGTTTTCATTGGGTTTGTTTGTTTTTCGGAGTCACCTAGTGCAG,11200 fluorescence intensity (a.u.)
13,TCCATCCACATGTGCATTAAAACTGTATTCTTTGACCTGACGGAGTCACCTAGTGCAG,8320 fluorescence intensity (a.u.)
14,CACACCTCTATCTCCTTTGTTTCTGTTCCCAATTTCTATTCGGAGTCACCTAGTGCAG,14500 fluorescence intensity (a.u.)
15,CCAAACTCATCTGCCAACATGTTAATTACTTTTATGCTGCCGGAGTCACCTAGTGCAG,8150 fluorescence intensity (a.u.)
16,CGCCCCGCCATCCTACTGCTCCTACTGCTCTATCGAGTTCCGGAGTCACCTAGTGCAG,11600 fluorescence intensity (a.u.)
17,TCCTGGATTCACAGGTCTACATTTGCAGCTCGACCTTTGACGGAGTCACCTAGTGCAG,10000 fluorescence intensity (a.u.)
18,CTCTCTCCCGCCATATTCTGGTCACCTCCGGTGAGCTCACCGGAGTCACCTAGTGCAG,10300 fluorescence intensity (a.u.)
19,CTTGCAATTTATACGTAATCTGTGTAATTAGTTTTTTTTGCGGAGTCACCTAGTGCAG,9120 fluorescence intensity (a.u.)
20,TCATTCCCTCCGTACCATTATGTTTGGGTTCTGTTGTGCTCGGAGTCACCTAGTGCAG,9750 fluorescence intensity (a.u.)
21,CCAGTTCAACACCGTCACGTAGGCGCCACATCAGCGAAATCGGAGTCACCTAGTGCAG,8430 fluorescence intensity (a.u.)
